According to publication PMC10537513:
These are yes or no findings as the source states them, for the method shown. Binding seen in cells or lysates may run through a third protein. Some binding calls cover weakened binding; strength is not graded here.

The chains behind the UniProt entries cited, without tags or fusion partners.
UniProt Q6XZL8: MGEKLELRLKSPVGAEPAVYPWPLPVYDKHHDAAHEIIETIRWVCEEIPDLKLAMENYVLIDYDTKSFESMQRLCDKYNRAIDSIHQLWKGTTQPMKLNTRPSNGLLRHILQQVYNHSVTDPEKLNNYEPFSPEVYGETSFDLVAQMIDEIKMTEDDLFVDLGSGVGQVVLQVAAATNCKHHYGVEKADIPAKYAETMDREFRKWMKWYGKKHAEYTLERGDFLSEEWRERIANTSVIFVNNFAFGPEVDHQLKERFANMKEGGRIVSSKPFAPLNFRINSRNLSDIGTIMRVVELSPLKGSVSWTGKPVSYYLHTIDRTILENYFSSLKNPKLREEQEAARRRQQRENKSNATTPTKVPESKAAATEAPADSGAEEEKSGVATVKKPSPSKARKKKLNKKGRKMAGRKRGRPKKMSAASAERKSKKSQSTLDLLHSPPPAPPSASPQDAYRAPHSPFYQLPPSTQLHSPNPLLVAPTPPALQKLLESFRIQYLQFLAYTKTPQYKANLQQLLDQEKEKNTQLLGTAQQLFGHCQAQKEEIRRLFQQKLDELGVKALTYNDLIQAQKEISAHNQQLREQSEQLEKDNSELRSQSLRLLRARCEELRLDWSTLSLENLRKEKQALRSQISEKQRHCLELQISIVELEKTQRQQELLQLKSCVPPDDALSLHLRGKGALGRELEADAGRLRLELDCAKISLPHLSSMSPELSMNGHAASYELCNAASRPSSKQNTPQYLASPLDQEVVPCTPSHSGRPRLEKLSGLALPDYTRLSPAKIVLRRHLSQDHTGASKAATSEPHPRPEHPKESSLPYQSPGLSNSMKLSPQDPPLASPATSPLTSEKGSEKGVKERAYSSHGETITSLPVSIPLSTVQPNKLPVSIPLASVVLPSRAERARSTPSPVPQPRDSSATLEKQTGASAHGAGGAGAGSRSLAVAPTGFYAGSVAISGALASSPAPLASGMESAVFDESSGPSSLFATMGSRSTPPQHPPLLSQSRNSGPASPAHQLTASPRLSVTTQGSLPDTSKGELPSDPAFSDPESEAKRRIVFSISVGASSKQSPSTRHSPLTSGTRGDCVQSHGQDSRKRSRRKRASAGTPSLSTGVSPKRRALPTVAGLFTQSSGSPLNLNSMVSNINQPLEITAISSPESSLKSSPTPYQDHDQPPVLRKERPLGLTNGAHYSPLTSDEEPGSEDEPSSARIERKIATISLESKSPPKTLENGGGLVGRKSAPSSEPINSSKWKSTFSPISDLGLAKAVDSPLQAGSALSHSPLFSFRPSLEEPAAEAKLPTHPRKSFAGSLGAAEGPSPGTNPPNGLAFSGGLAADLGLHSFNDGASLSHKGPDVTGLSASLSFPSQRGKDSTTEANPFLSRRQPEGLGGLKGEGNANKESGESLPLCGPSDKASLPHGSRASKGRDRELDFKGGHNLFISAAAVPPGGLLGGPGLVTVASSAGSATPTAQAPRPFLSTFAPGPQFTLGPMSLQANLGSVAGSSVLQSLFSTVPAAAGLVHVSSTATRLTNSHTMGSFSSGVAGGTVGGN
UniProt Q61937: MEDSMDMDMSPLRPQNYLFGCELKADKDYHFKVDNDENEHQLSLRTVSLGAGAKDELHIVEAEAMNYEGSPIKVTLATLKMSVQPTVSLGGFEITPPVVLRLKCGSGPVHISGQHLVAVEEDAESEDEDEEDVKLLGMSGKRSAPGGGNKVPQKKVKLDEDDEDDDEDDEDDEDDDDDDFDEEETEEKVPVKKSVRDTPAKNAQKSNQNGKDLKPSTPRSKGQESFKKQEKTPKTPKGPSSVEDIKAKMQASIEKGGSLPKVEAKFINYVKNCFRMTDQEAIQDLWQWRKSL

Key:
[1] = target: DOT1L-HA-FLAG overexpressed in N2a cells (mouse) (UniProt Q6XZL8); test: co-IP; DOT1L-FLAG-HA overexpressed in N2a cells; lysate in co-IP Buffer 1 (20 mM Tris pH 7.5, 1 mM EDTA, 100 mM NaCl, 0.5% NP40); IP with HA antibody (or NPM1 antibody) on protein G dynabeads overnight, IgG control; DOT1L detected with FLAG antibody; also with lysate treated with 20 ug RNase (much stronger interaction) or 5U DNase (binding not affected) for 30 min before the co-IP
[2] = target: Nucleophosmin 1 (NPM1), endogenous in N2a cells (mouse (endogenous in N2a)) (UniProt Q61937); test: cross-linking; N2a lysate in co-IP Buffer 1 with 0.5 mM EGS for 30 min at 25 °C; input probed with NPM1 antibody: monomeric and oligomeric NPM1 bands
[3] = target: DOT1L-HA-FLAG overexpressed in N2a cells (mouse) (UniProt Q6XZL8); test: co-IP; chromatin fraction of N2a cells overexpressing DOT1L-FLAG-HA, resuspended in co-IP Buffer (20 mM Tris pH 7.5, 1 mM EDTA, 100 mM NaCl, 0.5% NP40) and sonicated; co-IP as for total lysate
[4] = target: DOT1L-HA-FLAG overexpressed in N2a cells (mouse) (UniProt Q6XZL8); test: co-IP + cross-linking; N2a cells expressing DOT1L-HA-FLAG for 72 h, lysed in co-IP Buffer 1, incubated with DMSO or 0.5 mM EGS for 30 min at 25 °C, quenched with Tris-HCl pH 7.5; DOT1L immunoprecipitated with HA antibody, immunoblot with NPM1 antibody
[5] = target: DOT1L, endogenous in N2a cells (mouse (endogenous in N2a)) (UniProt Q6XZL8); test: co-IP; endogenous proteins, N2a cell lysate (4*10^7 cells) in co-IP Buffer 2 (20 mM Hepes pH8, 300 mM NaCl, 0.5% NP40, 10% glycerol, 1 mM EDTA) equilibrated to 150 mM NaCl; DOT1L antibody or NPM1 antibody on protein G dynabeads overnight; immunoblot
[6] = target: DOT1L-HA-FLAG overexpressed in N2a cells (mouse) (UniProt Q6XZL8); test: proximity ligation; in situ PLA (Duolink) in N2a cells overexpressing DOT1L-FLAG-HA, antibodies against FLAG and NPM1; signal inside the nucleus (LMNB1), outside the nucleolus (FBL)
[7] = target: DOT1L-HA-FLAG overexpressed in N2a cells (mouse) (UniProt Q6XZL8); test: co-IP; nucleoplasm fraction of N2a cells overexpressing DOT1L-FLAG-HA, adjusted with co-IP Buffer (20 mM Tris pH 7.5, 1 mM EDTA, 100 mM NaCl, 0.5% NP40); co-IP as for total lysate

Substance: Nucleophosmin 1 (NPM1), endogenous in N2a cells (from UniProt Q61937 1-292)
- binding [1]: binds
- binding [2]: binds
- binding [3]: binds
- binding [4]: binds
- binding [5]: binds
- binding [6]: binds
- binding [7]: no binding (condition: in the nucleoplasm fraction)
